{
  "sequences": {"note": "By UniProt entry, the sequences of proteins in these tests, tags left out. Where a name states a change or a piece, a line headed by the entry shows the natural chain unless it says otherwise.", "UniProt Q9UNA4": "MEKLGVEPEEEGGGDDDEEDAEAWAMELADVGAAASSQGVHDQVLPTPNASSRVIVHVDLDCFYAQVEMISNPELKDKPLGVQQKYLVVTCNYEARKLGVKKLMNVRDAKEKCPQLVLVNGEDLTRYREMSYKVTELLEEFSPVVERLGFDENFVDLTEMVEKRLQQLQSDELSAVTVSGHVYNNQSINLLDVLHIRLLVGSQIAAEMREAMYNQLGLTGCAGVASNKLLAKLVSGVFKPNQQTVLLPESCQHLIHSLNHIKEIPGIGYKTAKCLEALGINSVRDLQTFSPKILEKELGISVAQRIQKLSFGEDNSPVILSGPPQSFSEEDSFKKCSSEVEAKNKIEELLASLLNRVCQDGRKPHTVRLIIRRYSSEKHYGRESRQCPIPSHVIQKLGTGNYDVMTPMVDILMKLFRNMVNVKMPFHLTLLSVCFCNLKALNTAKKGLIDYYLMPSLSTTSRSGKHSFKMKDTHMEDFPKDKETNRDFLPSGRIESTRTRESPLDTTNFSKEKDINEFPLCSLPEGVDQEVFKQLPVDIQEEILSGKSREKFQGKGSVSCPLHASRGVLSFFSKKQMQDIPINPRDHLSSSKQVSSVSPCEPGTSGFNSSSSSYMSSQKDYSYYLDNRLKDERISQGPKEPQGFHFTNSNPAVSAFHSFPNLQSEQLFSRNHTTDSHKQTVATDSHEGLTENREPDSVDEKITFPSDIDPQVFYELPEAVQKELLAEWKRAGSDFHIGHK"},
  "source": "PubChem BioAssay AID588590",
  "about": "(National Center for Advancing Translational Sciences (NCATS), 2011)",
  "note": "The whole screen tested about 390,000 compounds, of which about 4,000 (1%) were called active. Inconclusive results, whose numbers are uncertain, are shown with a selection of clear calls. Calls follow the shape of the dose curve; as a rule, active = well fitted inhibition curve with a large enough effect; inconclusive = small, poorly fitted or top-dose-only effect, or another doubt; inactive = no such curve, though single readings can be large or run the other way. A potency beside an inconclusive call is a rough fit, not a confirmed value. Potency is read from the fitted curve at half-maximal effect.",
  "data": [
    {"molecular_target": "DNA polymerase iota (Homo sapiens) (UniProt Q9UNA4)", "assay": "qHTS for Inhibitors of Polymerase Iota", "conditions": "Pol iota fluorescent replication assay, 10 min; series mostly up to 115 µM", "summary_of_the_method": "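Fluorescent replication assay read twice, at 0 min and 10 min after adding 50 nM (final) substrate. Enzyme (10 nM) and compounds were first incubated 15 min at room temperature; enzyme-free buffer wells were negative controls.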", "values": [
      {"smiles": "COc1ccccc1C(OC(=O)c1cccs1)C(=O)NCc1ccco1", "note": "(configuration not stated)", "Potency": "inconclusive: 15.8 µM [inhibitor, full curve, poor fit]"},
      {"smiles": "COc1ccccc1Nc1c2c(nc3ccccc13)CCC2", "Potency": "inconclusive: 7.94 µM [inhibitor, partial curve]"},
      {"smiles": "O=C(ONC(=O)C1CCCCC1C(=O)NOC(=O)c1ccccc1)c1ccccc1", "note": "(configuration not stated)", "Potency": "inactive"},
      {"smiles": "COc1cccc(C2CC(=O)N3CN(C4CCCCC4)CSC3=C2C#N)c1", "note": "(configuration not stated)", "Potency": "inconclusive: 25.1 µM [inhibitor, partial curve]"},
      {"smiles": "Cc1noc(C)c1CSCC(=O)Nc1cc(S(=O)(=O)N2CCOCC2)ccc1OC(C)C", "Potency": "inactive"},
      {"smiles": "CCN(CC)C(=O)C(=O)Nc1ccc(OCc2ccccc2)cc1", "Potency": "inactive"},
      {"smiles": "CCOc1cc(/C=N/NC(=O)c2ccc(-c3csc(Nc4ccc(C)cc4)n3)cc2)ccc1OCC(=O)O", "Potency": "active: 8.91 µM"},
      {"smiles": "Cc1ccccc1-n1nc2c(c1NC(=O)c1ccc(Br)o1)CSC2", "Potency": "inconclusive: 50.1 µM [inhibitor, partial curve]"},
      {"smiles": "CCc1ccc([C@@H]2CC=C(C(=O)O)[C@H](c3ccc(Br)cc3)N2S(=O)(=O)c2ccc(C)cc2)cc1", "Potency": "inconclusive: 0.891 µM [inhibitor, partial curve, poor fit]"},
      {"smiles": "CN(C)c1ccc(NC(=O)CSC2=Nc3ccccc3C3=NC(CC(=O)NCc4ccccc4)C(=O)N23)cc1", "note": "(configuration not stated)", "Potency": "inconclusive: 89.1 µM [inhibitor, single point]"},
      {"smiles": "Cc1cc(C)n2c(Br)c(CSc3nc4ccccc4s3)nc2n1", "Potency": "inconclusive: 20 µM [inhibitor, partial curve, poor fit]"},
      {"smiles": "C#CCOCCOCCOCCNc1nc(N2CCN(C(=O)Cn3cc(CCCN=C(N)N)nn3)CC2)nc(N2CCN(C(=O)[C@H](CCCCN)n3cc(CCCC)nn3)CC2)n1", "Potency": "inconclusive: 35.5 µM [inhibitor, full curve, poor fit]"},
      {"smiles": "CCN(CC)c1nc2ccccc2n2cnnc12", "Potency": "active: 89.1 µM"},
      {"smiles": "CCOC(=O)N1CCN(C(=O)c2ccc3c(c2)NC(=O)/C(=C\\c2cccc(C)c2)S3)CC1", "Potency": "inconclusive: 25.1 µM [inhibitor, partial curve, poor fit]"},
      {"smiles": "O=[N+]([O-])c1ccc(C=Nc2cccc3ccccc23)s1", "Potency": "inconclusive: 15.8 µM [inhibitor, partial curve, poor fit]"},
      {"smiles": "CC(=O)OCCNc1cc(Sc2nc3ccccc3[nH]2)c2nonc2c1[N+](=O)[O-]", "Potency": "inconclusive: 35.5 µM [inhibitor, partial curve, poor fit]"},
      {"smiles": "Cc1cc2c(NC(=O)Nc3ccc(C(F)(F)F)cc3)cccc2nn1", "Potency": "inconclusive: 7.94 µM [inhibitor, full curve, poor fit]"},
      {"smiles": "N#Cc1ccc(NS(=O)(=O)c2ccc(-c3cnc(C4CC4)o3)cc2)cc1", "Potency": "inconclusive: 100 µM [inhibitor, partial curve, poor fit]"},
      {"smiles": "CCOc1ccc(CCNC(=O)C2CCCN(S(=O)(=O)c3c(C)n[nH]c3C)C2)cc1OCC", "note": "(configuration not stated)", "Potency": "inconclusive: 2.82 µM [inhibitor, partial curve, poor fit]"},
      {"smiles": "COc1ccc(Br)cc1CSC(=N)N", "Potency": "inactive"},
      {"smiles": "Cc1cnc(NC(=O)CC2OC(=O)c3ccccc32)s1", "note": "(configuration not stated)", "Potency": "inconclusive: 89.1 µM [inhibitor, single point]"},
      {"smiles": "COc1ccc(-c2nc(SCC(=O)Nc3nccs3)c(-c3ccc(Cl)cc3)[nH]2)cc1", "Potency": "inconclusive: 100 µM [inhibitor, single point]"},
      {"smiles": "CC(=O)Oc1ccccc1C(=O)O", "Potency": "inconclusive: 89.1 µM [inhibitor, single point]"},
      {"smiles": "CC(C)CN(C(=O)COC(=O)CNC(=O)c1ccccc1F)C1CCS(=O)(=O)C1", "note": "(configuration not stated)", "Potency": "inconclusive: 89.1 µM [inhibitor, single point]"},
      {"smiles": "CN(CC(=O)NCCN1CCCCCC1)S(=O)(=O)c1cccc2nsnc12", "Potency": "inconclusive: 7.94 µM [inhibitor, full curve, poor fit]"},
      {"smiles": "COc1cc(OC)cc(C(=O)N/N=C\\c2ccoc2)c1", "Potency": "inconclusive: 89.1 µM [inhibitor, single point]"},
      {"smiles": "O=C(Nc1ccc2nccnc2c1)N1CCCCCC1", "Potency": "inconclusive: 35.5 µM [inhibitor, single point]"},
      {"smiles": "CC1=C(C(=O)NCc2ccc(Cl)cc2)C2(CCCCCC2)OC1=O", "Potency": "inactive"},
      {"smiles": "Cc1ccc(N2CC(NC(=O)CCc3ccccc3)CC2=O)cc1", "note": "(configuration not stated)", "Potency": "inconclusive: 44.7 µM [inhibitor, partial curve, poor fit]"},
      {"smiles": "O=C1c2ccccc2C(=O)c2c(/C=C/N3CCCCC3)ccnc21", "Potency": "inconclusive: 15.8 µM [inhibitor, full curve]"},
      {"smiles": "COc1cccc(NC(=O)C(C)(C)C)c1", "Potency": "inconclusive: 25.1 µM [inhibitor, partial curve, poor fit]"},
      {"smiles": "CN(C)CCN(C(=O)c1ccc2c(c1)CCCC2)c1nc2c(F)cccc2s1", "Potency": "inconclusive: 31.6 µM [inhibitor, partial curve, poor fit]"},
      {"smiles": "CCCCn1c(NC(C)=O)c(C#N)c2nc3ccccc3nc21", "Potency": "inconclusive: 3.55 µM [inhibitor, partial curve, poor fit]"},
      {"smiles": "O=C(COC(=O)c1cccnc1SCC(=O)NCc1ccccc1)NCc1ccccc1", "Potency": "inconclusive: 39.8 µM [inhibitor, single point]"},
      {"smiles": "CCC(Oc1ccccc1)C(=O)Nc1ccc(C)c(S(=O)(=O)N2CCOCC2)c1", "note": "(configuration not stated)", "Potency": "inactive"},
      {"smiles": "COc1ccc(N2CCN(C(=O)CCS(=O)(=O)c3cc(Br)cc4c3N(C(=O)C3CC3)CC4)CC2)cc1", "Potency": "inconclusive: 2.51 µM [inhibitor, full curve, poor fit]"},
      {"smiles": "O=C(CN1C(=O)C2CC=CCC2C1=O)N1CCN(c2ccc([N+](=O)[O-])cc2)CC1", "note": "(configuration not stated)", "Potency": "inconclusive: 56.2 µM [inhibitor, partial curve, poor fit]"},
      {"smiles": "Cc1ccc(OCCCC(=O)Nc2ccc(S(=O)(=O)Nc3cc(C)nc(C)n3)cc2)cc1", "Potency": "inconclusive: 56.2 µM [inhibitor, partial curve, poor fit]"},
      {"smiles": "O=C(O)c1ccc2c(c1)C(=O)N(Cc1ccc3c(c1)OCO3)C2=O", "Potency": "inconclusive: 112 µM [inhibitor, single point]"},
      {"smiles": "Cc1ccccc1N=C1NC(=O)/C(=C/c2cccnc2)S1", "Potency": "inconclusive: 15.8 µM [inhibitor, full curve, poor fit]"},
      {"smiles": "Cc1ccc(C)c(CN2C(=O)c3ccccc3S(=O)c3ccc(C(=O)NCCc4ccc(Cl)cc4)cc32)c1", "note": "(configuration not stated)", "Potency": "inactive"},
      {"smiles": "CCOC(=O)C1=C(COC(=O)CNS(=O)(=O)c2c(F)cc(F)cc2Br)NC(=O)NC1C", "note": "(configuration not stated)", "Potency": "inconclusive: 89.1 µM [inhibitor, single point]"},
      {"smiles": "O=C(O)C(Cc1ccccc1)N1C(=O)/C(=C/c2cccnc2)SC1=S", "note": "(configuration not stated)", "Potency": "inconclusive: 25.1 µM [inhibitor, full curve]"},
      {"smiles": "Cc1[nH]c2ccccc2c(=O)c1C(=O)/C=C/c1ccccc1", "Potency": "inconclusive: 22.4 µM [inhibitor, full curve]"},
      {"smiles": "COc1ccc(NC(=O)CC2C(=O)N(c3ccc(Cl)cc3)C(=S)N2CCc2ccncc2)cc1", "note": "(configuration not stated)", "Potency": "inconclusive: 20 µM [inhibitor, single point]"},
      {"smiles": "COC(=O)[C@H](Cc1ccccc1)NS(=O)(=O)c1ccc(F)cc1Br", "Potency": "inactive"},
      {"smiles": "Cc1nnc(NC(=O)COc2ccc3c(C)cc(=O)oc3c2)s1", "Potency": "inconclusive: 6.31 µM [inhibitor, full curve, poor fit]"},
      {"smiles": "CCOC(=O)C(=CNc1ccc(Cl)cn1)C(=O)OCC", "Potency": "inactive"},
      {"smiles": "Cc1ccc(S(=O)(=O)NNC(=O)C(=O)NNS(=O)(=O)c2ccc(C)cc2)cc1", "Potency": "inactive"},
      {"smiles": "O=C(O)CSCC(=O)Nc1cc(C(F)(F)F)ccc1Cl", "Potency": "inconclusive: 112 µM [inhibitor, single point]"},
      {"smiles": "O=C(O)/C(=C/c1ccco1)NC(=O)c1ccccc1", "Potency": "inconclusive: 112 µM [inhibitor, partial curve, poor fit]"},
      {"smiles": "Cc1cn(CC2COC(C)(C)O2)c(=O)[nH]c1=O", "note": "(configuration not stated)", "Potency": "inconclusive: 10 µM [inhibitor, single point]"},
      {"smiles": "O=C(O)c1cc(O)ccc1NC(=O)c1cccc2ccccc12", "Potency": "inconclusive: 56.2 µM [inhibitor, partial curve, poor fit]"},
      {"smiles": "CCOC(=O)c1c(-c2ccc(-c3ccccc3)cc2)csc1NC(=O)C1C2CCC(O2)C1C(=O)O", "note": "(configuration not stated)", "Potency": "inconclusive: 56.2 µM [inhibitor, partial curve, poor fit]"},
      {"smiles": "O=C(Nc1ccc(NC(=O)c2ccco2)nc1)c1ccccn1", "Potency": "inconclusive: 126 µM [inhibitor, single point]"},
      {"smiles": "COc1ccc(C(=O)NCCn2cc(SCC(=O)NCc3ccco3)c3ccccc32)cc1", "Potency": "inconclusive: 35.5 µM [inhibitor, single point]"},
      {"smiles": "CCCCCCc1c(O)nc(SCCN(C)C)[nH]c1=O", "Potency": "inconclusive: 70.8 µM [inhibitor, single point]"},
      {"smiles": "CCCc1n[nH]c2c1/C(=N/O)CC(c1ccccc1)C2", "note": "(configuration not stated)", "Potency": "inconclusive: 22.4 µM [inhibitor, full curve, poor fit]"},
      {"smiles": "COc1ccc(CCNC(=O)CCCn2c(=O)c3ccccc3n(Cc3ccccc3C#N)c2=O)cc1OC", "Potency": "inconclusive: 89.1 µM [inhibitor, single point]"},
      {"smiles": "NC(=O)N=Nc1c2[nH]c3ccccc3nc-2c2ccccc12", "Potency": "inconclusive: 11.2 µM [inhibitor, full curve]"},
      {"smiles": "CCNc1nc(NCC)n2c(SCC(=O)Nc3cccc(Cl)c3)nnc2n1", "Potency": "inconclusive: 56.2 µM [inhibitor, partial curve, poor fit]"},
      {"smiles": "CC(=O)Nc1nonc1-c1nnc(SCC(=O)Nc2cc(Cl)ccc2C)n1C", "Potency": "inactive"}
    ]}
  ]
}
